Values quoted from earlier work, collected in US20170108514A1, “DIAGNOSIS OF MULTIPLE SCLEROSIS IN HUMAN AND ANIMAL SUBJECTS” (THE REGENTS OF THE UNIVERSITY OF COLORADO, a body corporate, priority 2014, published 2017).
For at least one compound, name, drawing or mass did not settle the structure.

System: multiple sclerosis patients
Details: phase I study; cited from earlier work

C/C(O)=C(\C#N)C(=O)Nc1ccc(C(F)(F)F)cc1 [Aubagio, teriflunomide]
relapses: reduced relapses
